Results deposited as PubChem BioAssay AID1224830 (NIAID, 2016).

- Purpose: 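Regulators of TLR4 signalling towards TNF-alpha in macrophage-like cells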 (primary screen)
- Cells: human THP-1 monocytic leukaemia cells, TNF dual-luciferase reporter clone, PMA-differentiated to macrophage-like cells
- Reagents: siRNA pool against human genes, 50 nM
- Duration: LPS for 4 h, given about 3 days after siRNA transfection
- Treatment: bacterial LPS (TLR4 ligand), 10 ng/ml
- Measurement: 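Ratio of firefly to renilla light, scaled to the plate median and expressed as a robust z-score per replicate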
- Reading the numbers: TNF reporter robust z-score: higher = stronger TNF reporter response to LPS
- Hit rule: 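Each well counts as active if its z-score is over 2.8 or under -1.5; controls are left without a call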
In all, the deposit lists about 18,000 reagents; below is a part drawn at random. About 2,900 of all reagents (16%) were called active. 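Calls are made per well; low scores hint the gene aids the LPS response, high scores that it dampens it.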 Repeated entries: four replicate wells of each siRNA pool.

TNF reporter robust z-score	call	gene symbol	PubChem SID
-0.17	inactive	GBP6	SID315462785
-0.83	inactive	GBP6	SID315462785
-0.28	inactive	GBP6	SID315462785
-0.98	inactive	GBP6	SID315462785
-0.03	inactive	ZFAND4	SID315461081
-0.16	inactive	ZFAND4	SID315461081
-0.94	inactive	ZFAND4	SID315461081
0.77	inactive	ZFAND4	SID315461081
-0.3	inactive	DUOXA1	SID315460836
-0.72	inactive	DUOXA1	SID315460836
-0.2	inactive	DUOXA1	SID315460836
-0.57	inactive	DUOXA1	SID315460836
0.92	inactive	PUDP	SID315452437
2.18	inactive	PUDP	SID315452437
1.77	inactive	PUDP	SID315452437
0.3	inactive	PUDP	SID315452437

Quoted from the listing, 5 entries:
TNF reporter robust z-score	call	gene symbol	PubChem SID
-0.16	inactive	ZFAND4	SID315461081
-0.94	inactive	ZFAND4	SID315461081
0.77	inactive	ZFAND4	SID315461081
-0.3	inactive	DUOXA1	SID315460836
-0.72	inactive	DUOXA1	SID315460836

The results go on:
TNF reporter robust z-score	call	gene symbol	PubChem SID
2.51	inactive	SCGB1D2	SID315454265
3.25	active	SCGB1D2	SID315454265
2.36	inactive	SCGB1D2	SID315454265
3.41	active	SCGB1D2	SID315454265
0.36	inactive	KRTAP10-9	SID315464411
1.84	inactive	KRTAP10-9	SID315464411
0.8	inactive	KRTAP10-9	SID315464411
0.57	inactive	KRTAP10-9	SID315464411
0.14	inactive	RUNDC3A	SID315454438
0.69	inactive	RUNDC3A	SID315454438
0.09	inactive	RUNDC3A	SID315454438
0.44	inactive	RUNDC3A	SID315454438
-0.41	inactive	OSTCP1	SID315463103
-0.19	inactive	OSTCP1	SID315463103
-0.71	inactive	OSTCP1	SID315463103
-0.6	inactive	OSTCP1	SID315463103
0.01	inactive	BTK	SID315447598
0.03	inactive	BTK	SID315447598
-0.36	inactive	BTK	SID315447598
0.21	inactive	BTK	SID315447598
0.89	inactive	NXN	SID315458900
1.68	inactive	NXN	SID315458900
0.92	inactive	NXN	SID315458900
1.53	inactive	NXN	SID315458900
0.35	inactive	TCF20	SID315451795
-0.06	inactive	TCF20	SID315451795
-0.01	inactive	TCF20	SID315451795
0.58	inactive	TCF20	SID315451795
1.36	inactive	MRPS17	SID315456678
-0.54	inactive	MRPS17	SID315456678
0.72	inactive	MRPS17	SID315456678
0.23	inactive	MRPS17	SID315456678
